Test system: WT (GM05659) and NPC (GM03123) human fibroblasts
Experiment: Sub-cellular localization and uptake of Alexa555-conjugated rhASM
Format: cell-based
Conditions: 3 μg/mL, 24 hours
Method: WT (GM5659) and NPC (GM03123) Fbs were incubated with or without 3 μg/mL Alexa555-conjugated rhASM for 24 hours. To remove surface-bound label, the cells were further incubated for 15 min with a growth medium without the enzyme. Finally, the cells were washed with PBS, fixed with 1.5% PFA, and stained with filipin for imaging and quantification. […] Color overlays for filipin (green) and rhASM-Alexa555 (red) are shown in panels (C, F and I). The images in the inset are the zoomed color overlays of the region marked in (C, F and I). Scale bar=10 μm.
For identifying the localization of rhASM in the cells, recombinant enzyme was conjugated with Alexa555 (Invitrogen) according to the manufacturer's protocol. Normal (GM05659) and NPC1 human fibroblasts (GM03123) were incubated in a medium containing 3 μg/mL Alexa555-rhASM for 24 h prior to fixing and staining with filipin. Images were acquired using standard UV and TRITC filters for filipin and Alexa555-labeled rhASM, and quantified.
To ascertain whether exogenously added rhASM was localized and processed in late endosomal organelles, WT (GM05659) and NPC (GM03123) human fibroblasts were incubated for 24 hours in the absence or presence of 3 μg/mL of Alexa555-labeled rhASM. […] The cells were then washed, fixed and stained with filipin for imaging and quantification. […]

B1: rhASM-Alexa555: recombinant enzyme conjugated with Alexa555 (conjugate, UniProt P17405 47-631, looked up)
Sphingomyelin …: LALSDSRVLWAPAEAHPLSPQGHPARLHRIVPRLRDVFGWGNLTCPICKGLFTAINLGLKKEPNVARVGSVAIKLCNLLKIAPPAVCQSIVHLFEDDMVEVWRRSVLSPSEACGLLLGSTCGHWDIFSSWNISLPTVPKPPPKPPSPPAPGAPVSRILFLTDLHWDHDYLEGTDPDCADPLCCRRGSGLPPASRPGAGYWGEYSKCDLPLRTLESLLSGLGPAGPFDMVYWTGDIPAHDVWHQTRQDQLRALTTVTALVRKFLGPVPVYPAVGNHESTPVNSFPPPFIEGNHSSRWLYEAMAKAWEPWLPAEALRTLRIGGFYALSPYPGLRLISLNMNFCSRENFWLLINSTDPAGQLQWLVGELQAAEDRGDKVHIIGHIPPGHCLKSWSWNYYRIVARYENTLAAQFFGHTHVDEFEVFYDEETLSRPLAVAFLAPSATTYIGLNPGYRVYQIDGNYSGSSHVVLDHETYILNLTQANIPGAIPHWQLLYRARETYGLPNTLPTAWHNLVYRMRGDMQLFQTFWFLYHKGHPPSEPCGTPCRLATLCAQLSARADSPALCRHLMPDGSLPEAQSLWPRPLFC
modifications: Alexa555 label
sub-cellular localization: specifically localized to cholesterol-laden storage organelles
uptake in the presence of excess mannose-6-phosphate (10 mM mannose-6-phosphate): completely blocked

Reference: patent publication US10124019B2, “Compositions and their use for removing cholesterol” (Cornell University, priority 2009, dated 2018)
